PubChem BioAssay AID743454 – Peter MacCallum Cancer Centre – 2014

Test: 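Knock-downs lowering viability or raising caspase 3/7 activity in vorinostat-treated resistant cells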 (primary screen)
System: human HCT116-VR colon cancer cells, selected for vorinostat resistance
Reagents: siRNA pool against human genes, 40 nM siRNA pool
Timing: vorinostat for 24 h, read-out about 72 h after transfection
Challenge: vorinostat at 2.5 µM final
Measured: 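Cell viability by CellTiter-Fluor and caspase 3/7 activity by luminescence, each scaled to mock wells per plate, duplicates averaged, then robust z-scored over all plates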
Scale: viability robust z-score: higher = more viable cells than screen typical; caspase robust z-score: higher = more caspase 3/7 activity than screen typical
Hit rule: 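Hits are knock-downs in viability class RV1/RV2 or caspase class CA1/CA2, excluding ones that killed cells in the no-drug cell-count arm; hits then retested with single siRNAs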
Shown is an unselected part of about 18,000 reagents. 450 of all reagents (2.5%) count as active. 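Single biological run; no consistent viability z cut-off exists, so the class columns, not z-scores, define the calls.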 Reagent sequences are not shown.

gene knocked down	viability hit class	caspase hit class	viability robust z-score	caspase robust z-score	outcome
SLC22A24	no change	no change	0.24	0.82	inactive
ANKLE1	no change	no change	1.22	-0.05	inactive
KRT4	no change	no change	-1.17	0.6	inactive
NUDT4	no change	no change	1.57	1.2	inactive
PCDHGB3	no change	no change	0.08	1.26	inactive
SIGMAR1	no change	no change	0.73	3.1	inactive
OR1L4	no change	no change	-0.35	-0.51	inactive
PLEKHG3	no change	no change	-0.89	-1.12	inactive
PDCD1LG2	no change	no change	-0.38	0.17	inactive
TGFB2	no change	no change	1.61	-0.24	inactive
C1QTNF12	no change	no change	1.16	2.62	inactive
SCGB1C1	no change	no change	-1.19	-0.43	inactive
HS6ST2	no change	no change	0.64	0.97	inactive
SLAMF6	no change	no change	1.11	0.86	inactive
GMPPA	no change	no change	-1.05	2.27	inactive
LINC02897	no change	no change	0.06	2.52	inactive
SMURF1	no change	no change	0.18	0.26	inactive
CYP2C18	no change	no change	0.4	0.66	inactive
CSRNP1	no change	no change	-0.72	1.56	inactive
MRPL47	no change	no change	-0.36	0.92	inactive
SWT1	no change	no change	-1.9	2.29	inactive

Targets listed so far whose target name starts with P or p:
gene knocked down	viability hit class	caspase hit class	viability robust z-score	caspase robust z-score	outcome
PCDHGB3	no change	no change	0.08	1.26	inactive
PLEKHG3	no change	no change	-0.89	-1.12	inactive
PDCD1LG2	no change	no change	-0.38	0.17	inactive

Additional entries follow:
gene knocked down	viability hit class	caspase hit class	viability robust z-score	caspase robust z-score	outcome
ABRA	no change	no change	0.11	-0.79	inactive
SF3B5	no change	no change	-4.54	3.07	inactive
MPZL2	no change	no change	-0.07	-0.42	inactive
NBPF11	no change	no change	0.14	-0.16	inactive
NAPA	no change	no change	-6.4	0.1	inactive
PARN	no change	no change	0.34	-0.67	inactive
DEGS2	no change	no change	0.63	0.5	inactive
MPV17L	no change	no change	-2.16	-0.15	inactive
CRY2	no change	no change	-0.38	-0.49	inactive
CISD2	no change	no change	-1.16	2.75	inactive
IL17A	no change	no change	-2.91	1.64	inactive
SLC25A2	no change	no change	-0.86	-0.6	inactive
SIRT2	no change	no change	1.99	-0.2	inactive
CHRNA7	RV2 (reduced viability)	no change	-2.91	-0.62	active
HASPIN	no change	no change	-0.72	-0.04	inactive
OMA1	no change	no change	-1.42	0.44	inactive
GHDC	no change	no change	-0.9	4.2	inactive
NFYA	no change	CA1 (caspase activation)	-0.99	6.4	active
AVPR1B	no change	no change	-0.83	0.04	inactive
LTBP4	no change	no change	-0.08	0.39	inactive
ZNF746	no change	no change	0.28	0.44	inactive
WNK4	no change	no change	-0.02	4.03	inactive
TGFB1I1	no change	no change	0.09	-1.05	inactive
SF3B2	no change	no change	-3.59	2.58	inactive
NUF2	no change	no change	-2.21	2.13	inactive
PCDH17	no change	no change	0.04	0.62	inactive
ZNF710	no change	no change	0.52	0.29	inactive
C12orf43	no change	no change	-1.23	2.59	inactive
MRPS2	no change	no change	-0.57	3.56	inactive
SRI	no change	no change	0.08	2.12	inactive
ZACN	no change	no change	-0.09	-0.31	inactive
ADAMTS5	no change	no change	1.13	0.04	inactive
USP42	no change	no change	0.53	-0.8	inactive
MBD5	no change	no change	0.11	0.12	inactive
KRTAP1-3	no change	no change	-0.26	-0.38	inactive
HPGD	no change	no change	-1.8	3	inactive
